Results reported in article PMC10821879.
No constants are given. Whether binding was seen depends on the method and setting. Binding seen in cells or lysates may run through a third protein. Some entries that bind do so weakly or less than the wild type. Where a sequence is shown, tags or fusion partners need not be part of it.

Sequences of proteins named here, by UniProt entry; tags and fusion partners are left off.
UniProt P10275: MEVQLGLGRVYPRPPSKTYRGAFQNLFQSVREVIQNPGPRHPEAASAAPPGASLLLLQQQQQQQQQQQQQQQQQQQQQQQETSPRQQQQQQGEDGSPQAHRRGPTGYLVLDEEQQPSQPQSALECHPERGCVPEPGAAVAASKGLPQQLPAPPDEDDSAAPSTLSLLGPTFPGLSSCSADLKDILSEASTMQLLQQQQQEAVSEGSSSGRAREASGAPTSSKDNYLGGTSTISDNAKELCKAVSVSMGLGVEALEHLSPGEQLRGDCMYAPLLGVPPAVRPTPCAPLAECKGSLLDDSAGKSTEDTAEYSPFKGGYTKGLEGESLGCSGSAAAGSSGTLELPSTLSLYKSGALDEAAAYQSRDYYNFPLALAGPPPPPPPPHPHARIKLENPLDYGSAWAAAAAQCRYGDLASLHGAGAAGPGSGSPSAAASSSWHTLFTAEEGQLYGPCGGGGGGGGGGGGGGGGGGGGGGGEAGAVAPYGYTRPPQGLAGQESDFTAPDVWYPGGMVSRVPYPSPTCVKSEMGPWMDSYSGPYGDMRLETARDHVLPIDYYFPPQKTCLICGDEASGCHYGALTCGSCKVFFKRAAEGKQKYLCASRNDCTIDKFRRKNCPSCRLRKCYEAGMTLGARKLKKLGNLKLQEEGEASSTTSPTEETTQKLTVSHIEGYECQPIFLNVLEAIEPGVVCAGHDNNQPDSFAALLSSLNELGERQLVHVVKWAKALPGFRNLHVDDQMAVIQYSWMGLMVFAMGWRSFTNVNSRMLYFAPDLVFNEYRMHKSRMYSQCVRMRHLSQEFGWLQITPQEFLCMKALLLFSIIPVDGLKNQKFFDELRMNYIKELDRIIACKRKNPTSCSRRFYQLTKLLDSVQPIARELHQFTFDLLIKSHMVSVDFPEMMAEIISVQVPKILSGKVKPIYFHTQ

T1: Myc-tagged PCDH19 (Protocadherin 19) (UniProt Q8TAB3)
T1 sequence: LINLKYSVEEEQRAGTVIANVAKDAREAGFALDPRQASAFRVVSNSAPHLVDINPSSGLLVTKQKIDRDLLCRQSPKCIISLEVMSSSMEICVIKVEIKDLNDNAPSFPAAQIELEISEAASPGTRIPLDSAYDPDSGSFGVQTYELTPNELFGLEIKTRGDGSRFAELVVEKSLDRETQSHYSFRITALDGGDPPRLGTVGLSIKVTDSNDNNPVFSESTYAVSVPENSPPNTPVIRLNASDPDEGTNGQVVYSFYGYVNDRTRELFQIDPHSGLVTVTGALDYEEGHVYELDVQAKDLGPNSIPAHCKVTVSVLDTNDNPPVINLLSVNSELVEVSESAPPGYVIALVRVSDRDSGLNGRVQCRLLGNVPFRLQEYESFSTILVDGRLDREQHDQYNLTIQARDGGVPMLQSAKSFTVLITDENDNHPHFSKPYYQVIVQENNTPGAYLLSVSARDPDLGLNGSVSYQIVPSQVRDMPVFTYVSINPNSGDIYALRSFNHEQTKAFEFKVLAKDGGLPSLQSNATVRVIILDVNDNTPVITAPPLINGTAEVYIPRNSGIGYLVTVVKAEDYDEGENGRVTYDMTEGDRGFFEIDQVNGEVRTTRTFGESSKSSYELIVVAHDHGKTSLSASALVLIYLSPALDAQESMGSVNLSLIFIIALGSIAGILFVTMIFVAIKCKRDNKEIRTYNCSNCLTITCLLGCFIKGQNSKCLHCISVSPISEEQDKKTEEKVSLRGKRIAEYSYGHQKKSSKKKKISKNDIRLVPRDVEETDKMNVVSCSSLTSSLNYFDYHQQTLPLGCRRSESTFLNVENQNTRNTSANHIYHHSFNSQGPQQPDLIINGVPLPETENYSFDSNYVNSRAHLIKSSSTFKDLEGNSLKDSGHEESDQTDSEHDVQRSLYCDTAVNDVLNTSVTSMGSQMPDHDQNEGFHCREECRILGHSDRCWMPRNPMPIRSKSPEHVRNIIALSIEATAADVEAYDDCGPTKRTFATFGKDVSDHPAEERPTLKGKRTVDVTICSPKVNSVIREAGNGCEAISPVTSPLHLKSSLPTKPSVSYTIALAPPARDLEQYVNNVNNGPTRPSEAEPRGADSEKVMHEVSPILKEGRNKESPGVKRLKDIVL

B1: HA-tagged PCDH10 (protein, UniProt Q9P2E7 19-1040)
chain: QLHYTVQEEQEHGTFVGNIAEDLGLDITKLSARGFQTVPNSRTPYLDLNLETGVLYVNEKIDREQICKQSPSCVLHLEVFLENPLELFQVEIEVLDINDNPPSFPEPDLTVEISESATPGTRFPLESAFDPDVGTNSLRDYEITPNSYFSLDVQTQGDGNRFAELVLEKPLDREQQAVHRYVLTAVDGGGGGGVGEGGGGGGGAGLPPQQQRTGTALLTIRVLDSNDNVPAFDQPVYTVSLPENSPPGTLVIQLNATDPDEGQNGEVVYSFSSHISPRARELFGLSPRTGRLEVSGELDYEESPVYQVYVQAKDLGPNAVPAHCKVLVRVLDANDNAPEISFSTVKEAVSEGAAPGTVVALFSVTDRDSEENGQVQCELLGDVPFRLKSSFKNYYTIVTEAPLDREAGDSYTLTVVARDRGEPALSTSKSIQVQVSDVNDNAPRFSQPVYDVYVTENNVPGAYIYAVSATDRDEGANAQLAYSILECQIQGMSVFTYVSINSENGYLYALRSFDYEQLKDFSFQVEARDAGSPQALAGNATVNILIVDQNDNAPAIVAPLPGRNGTPAREVLPRSAEPGYLLTRVAAVDADDGENARLTYSIVRGNEMNLFRMDWRTGELRTARRVPAKRDPQRPYELVIEVRDHGQPPLSSTATLVVQLVDGAVEPQGGGGSGGGGSGEHQRPSRSGGGETSLDLTLILIIALGSVSFIFLLAMIVLAVRCQKEKKLNIYTCLASDCCLCCCCCGGGGSTCCGRQARARKKKLSKSDIMLVQSSNVPSNPAQVPIEESGGFGSHHHNQNYCYQVCLTPESAKTDLMFLKPCSPSRSTDTEHNPCGAIVTGYTDQQPDIISNGSILSNETKHQRAELSYLVDRPRRVNSSAFQEADIVSSKDSGHGDSEQGDSDHDATNRAQSAGMDLFSNCTEECKALGHSDRCWMPSFVPSDGRQAADYRSNLHVPGMDSVPDTEVFETPEAQPGAERSFSTFGKEKALHSTLERKELDGLLTNTRAPYKPPYLTRKRIC

Key:
[1] = molecular target: T1, Myc-tagged PCDH19 (Protocadherin 19); test: co-IP; lysates of transfected HEK293T cells; Myc-PCDH19 immunoprecipitated with anti-Myc magnetic beads overnight at 4 °C in IP Buffer; blotted for Myc-PCDH19 and FLAG-AR
[2] = molecular target: FLAG-tagged Androgen Receptor (UniProt P10275); test: co-IP; lysates of transfected HEK293T cells; FLAG-AR immunoprecipitated with anti-FLAG agarose beads overnight at 4 °C in IP Buffer; blotted for FLAG-AR, HA-PCDH10 and HA-PCDH12

Row | Molecule | binding [1] | binding [2]
1 | FLAG-tagged Androgen Receptor (from UniProt P10275 1-920) | binds | 
2 | B1 |  | binds
